No constants are given. Whether binding was seen depends on the method and setting. In cells and extracts the contact can be indirect. Some binding calls cover weakened binding; strength is not graded here.
Target: p80 TNFR, full-length (Homo sapiens (Human)) (UniProt P20333)
Assay: co-immunoprecipitation, anti-HA blot, 293T cells

- binding: binds
B1: p80 10-54 / p60 55-211 chimera (receptor, not shown: small tags and cut ends)
chain (part 1 of 2): LPAQVAFTPY
chain (part 2 of 2): YAPEPGSTCRLREYYDQTAQMCCSKCSPGQHAKVFCTKTSDTVCDCESGSFTASENHLRHCLSCSKCRKEMGQVEISSCTVDRDTVCGCRKNQYRHYWSENLFQCFNCSLCLNGTVHLSCQEKQNTVCTCHAGFFLRENECVSCSNCKKSLECTKLCLPQIENVKGTEDSGTTVLLPLVIFFGLCLLSLLFIGLMYRYQRWK

Reference: US20100041596A1
